Counter-ions that a name gives are not always drawn. Like-named read-outs stand apart in the source and are kept apart here. The whole screen tested about 3,300 compounds, of which about 60 (2%) showed an effect of 50% or more. The list shows a part of the results.
Tested on: HCoV-OC43
Set-up: species or system RD; HTS, protection from HCoV-OC43 induced cell death, luminescent cell viability (CellCounting-Lite 2.0), inhibition rate

SMILES: CN1Cc2c(ccc3c2OCO3)[C@@H]2[C@H]1c1cc3c(cc1C[C@@H]2O)OCO3 [Chelidonine]
- OC43 Inhibition rate (24 h, 10 µM; inhibitor): 6%

SMILES: CN1[C@@H](CC(=O)c2ccccc2)CCC[C@H]1CC(=O)c1ccccc1 [Lobelanine]
- OC43 Inhibition rate (24 h, 10 µM; inhibitor): 12.9%

SMILES: COc1cc2cc(c1Cl)N(C)C(=O)C[C@H](OC(=O)C(C)C)[C@]1(C)O[C@@H]1[C@H](C)[C@@H]1C[C@@](O)(NC(=O)O1)[C@H](OC)/C=C/C=C(\C)C2 [Ansamitocin P-3]
- OC43 Inhibition rate (24 h, 10 µM; inhibitor): 17.2%

SMILES: C/C=C/C#CC#C/C=C/c1ccco1 [Atractylodin]
- OC43 Inhibition rate (24 h, 10 µM; inhibitor): 0.5%

SMILES: Oc1c(Br)cccc1Br [2,6-Dibromophenol]
- OC43 Inhibition rate (24 h, 10 µM; inhibitor): 1.1%

SMILES: C[C@@H]1CC[C@@]2(OC1)O[C@H]1[C@@H](O)[C@H]3[C@@H]4CC[C@H]5C[C@@H](O[C@@H]6O[C@H](CO)[C@H](O[C@@H]7O[C@H](CO)[C@@H](O)[C@H](O[C@@H]8OC[C@@H](O)[C@H](O)[C@H]8O)[C@H]7O[C@@H]7O[C@H](CO)[C@H](O)[C@H](O[C@@H]8O[C@H](CO)[C@@H](O)[C@H](O)[C@H]8O)[C@H]7O)[C@H](O)[C@H]6O)[C@H](O)C[C@]5(C)[C@H]4CC[C@]3(C)[C@H]1[C@@H]2C [Digitonin]
- OC43 Inhibition rate (24 h post infection, 1 h compound pre-incubation; 10 µM; inhibitor): 5.5%

SMILES: COc1ccc(/C=C/c2cc(OC)cc(OC)c2)cc1 [trans-Trimethoxyresveratrol]
- OC43 Inhibition rate (24 h, 10 µM; inhibitor): 9.7%

SMILES: CC(C)[C@@H]1NC(=O)[C@H](C)OC(=O)[C@@H](C(C)C)NC(=O)[C@@H](C(C)C)OC(=O)[C@H](C(C)C)NC(=O)[C@H](C)OC(=O)[C@@H](C(C)C)NC(=O)[C@@H](C(C)C)OC(=O)[C@H](C(C)C)NC(=O)[C@H](C)OC(=O)[C@@H](C(C)C)NC(=O)[C@@H](C(C)C)OC1=O [Valinomycin]
- OC43 Inhibition rate (24 h, 10 µM; inhibitor): 24.4%

SMILES: C[C@H]1CCCC(=O)CCC/C=C/c2cc(O)cc(O)c2C(=O)O1 [Zearalenone]
- OC43 Inhibition rate (24 h, 10 µM; inhibitor): 56.4%

SMILES: C/C=C(/C)C(=O)O[C@H]1[C@@H]2[C@H](C)C(=O)O[C@@H]2C[C@@H](C)[C@@H]2C=CC(=O)[C@]21C [Brevilin A]
- OC43 Inhibition rate (24 h, 10 µM; inhibitor): -7.8%

SMILES: C[C@@]12C[C@@H](c3ccoc3)OC(=O)[C@@H]1CC[C@]1(C)[C@H]2[C@@H]2C=C[C@@]1(O)C(=O)O2 [Columbin]
- OC43 Inhibition rate (24 h, 10 µM; inhibitor): 0.3%

SMILES: COC1=C[C@@H]2[C@@H]3Cc4ccc(OC)c(O)c4[C@]2(CCN3C)CC1=O [Sinomenine]
- OC43 Inhibition rate (24 h, 10 µM, inhibitor): -0.6%

SMILES: CCN1C[C@]2(C)CC[C@H](OC)[C@@]34C1[C@]1(OCO[C@@]15C[C@H](OC)[C@H]1C[C@]3(O)[C@@H]5[C@H]1OC)[C@@H](OC(C)=O)[C@H]24 [Deltaline]
- OC43 Inhibition rate (24 h, 10 µM; inhibitor): -0.3%

SMILES: O=c1ccc2ccc3occc3c2o1 [Angelicin]
- OC43 Inhibition rate (24 h, 10 µM; inhibitor): 7.8%

SMILES: C/C=C1\C[C@@H](C)[C@](O)(CO)C(=O)OCC2=CC[N+]3([O-])CC[C@@H](OC1=O)[C@@H]23 (stereo partly shown) [Usaramine N-oxide]
- OC43 Inhibition rate (24 h, 10 µM; inhibitor): 1.1%

SMILES: CCN1C[C@]2(COC)CC[C@H](OC)[C@]34C1[C@H](C[C@H]23)[C@@]1(O)C[C@H](OC)[C@H]2C[C@@H]4[C@@H]1[C@H]2O [Talatisamine]
- OC43 Inhibition rate (24 h, 10 µM; inhibitor): -0.2%

SMILES: COc1ccc(C=O)cc1OC [Veratraldehyde]
- OC43 Inhibition rate (24 h, 10 µM; inhibitor): -1.2%

SMILES: CO[C@H]1CC[C@@H](O[C@H]2C[C@H]([C@]3(C)CC[C@]4(C[C@H](O)[C@@H](C)[C@@H]([C@@H](C)/C=C(\C)C(=O)[C@H](C)C[C@H](C)C(=O)O)O4)O3)O[C@]3(O[C@@H]([C@H]4O[C@@](O)(CO)[C@H](C)C[C@@H]4C)C[C@@H]3C)[C@@H]2C)O[C@@H]1C [Dianemycin]
- OC43 Inhibition rate (24 h, 10 µM, inhibitor): -6.2%

SMILES: CC(C)=CCC/C(C)=C/CC/C(C)=C/CC[C@]1(C)CCc2cc(O)c(C)c(C)c2O1 [γ-Tocotrienol]
- OC43 Inhibition rate (24 h, 10 µM; inhibitor): -0.3

SMILES: C[C@]12CC[C@@H](O)C[C@@H]1CC[C@@H]1[C@@H]2CC[C@]2(C)C(=O)CC[C@@H]12 [Androsterone]
- OC43 Inhibition rate (24 h, 10 µM; inhibitor): 0.6%

SMILES: C[C@]12CC[C@H](O)C[C@H]1CC[C@@H]1[C@@H]2[C@H](O)C[C@]2(C)[C@@H](c3ccc(=O)oc3)CC[C@]12O [Gamabufotalin]
- OC43 Inhibition rate (24 h, 10 µM; inhibitor): 12.1%

SMILES: CC1=C[C@@H]2C(=O)[C@]3(C=C(C)[C@H](O)[C@@]3(O)[C@@H]1O)[C@H](C)C[C@@H]1[C@H]2C1(C)C [20-Deoxyingenol]
- OC43 Inhibition rate (24 h, 10 µM; inhibitor): 3.1%

SMILES: CC(=O)OC(C)(C)/C=C/C(=O)[C@](C)(O)[C@H]1[C@H](O)C[C@@]2(C)[C@@H]3CC=C4[C@H](C[C@H](O)C(=O)C4(C)C)[C@]3(C)C(=O)C[C@]12C [Cucurbitacin B]
- OC43 Inhibition rate (24 h, 10 µM; inhibitor): -1.7%

SMILES: C[C@H]1CCC[C@@H](O)CCCCCc2cc(O)cc(O)c2C(=O)O1 [Beta-Zearalanol]
- OC43 Inhibition rate (24 h, 10 µM; inhibitor): 0%

SMILES: N[C@@H](CNC(=O)C(=O)O)C(=O)O [Dencichine]
- OC43 Inhibition rate (24 h, 10 µM; inhibitor): -0.9%

SMILES: CCC(=O)c1cc2c(cc1O)OCO2 [Kakuol]
- OC43 Inhibition rate (24 h, 10 µM; inhibitor): -0.5%

SMILES: CC(C)=CCCC1=CC(=O)c2c(O)ccc(O)c2C1=O [Deoxyshikonin]
- OC43 Inhibition rate (24 h, 10 µM; inhibitor): -3.1%

SMILES: CCN1C[C@]2(COC)[C@H](O)C[C@H](OC)[C@@]34[C@@H]5C[C@]6(O)[C@@H](OC)C[C@@](OC(C)=O)([C@H]5[C@H]6OC(=O)c5ccccc5)[C@@H]([C@H](OC)[C@H]23)[C@@H]14 [Indaconitine]
- OC43 Inhibition rate (24 h, 10 µM; inhibitor): -0.3%

SMILES: C=C1[C@H](OC(=O)c2ccccc2)C[C@H]2[C@@H](/C=C(\C)C(=O)[C@@]3(OC(C)=O)C[C@H](C)[C@H](OC(=O)c4ccccc4)[C@@H]3[C@H]1OC(C)=O)C2(C)C [Euphorbia Factor L2]
- OC43 Inhibition rate (24 h, 10 µM; inhibitor): 4.9%

SMILES: Cc1cc(=O)[nH]c(=O)[nH]1 [6-Methyluracil]
- OC43 Inhibition rate (24 h, 10 µM; inhibitor): -0.7

SMILES: COC1=C[C@@H]2[C@@H]3Cc4ccc(OC)c(O)c4[C@]2(CCN3C)CC1=O [Sinomenine hydrochloride]
- OC43 Inhibition rate (24 h, 10 µM, inhibitor): 0.1%

SMILES: Cc1ccc(C=O)cc1 [p-Tolualdehyde]
- OC43 Inhibition rate (24 h, 10 µM; inhibitor): -0.1

SMILES: C[C@]12CCC(=O)C=C1CC[C@@H]1[C@@H]2C(=O)C[C@]2(C)C(=O)CC[C@@H]12 [Adrenosterone]
- OC43 Inhibition rate (24 h, 10 µM; inhibitor): -0.1%

SMILES: O=Cc1ccc[nH]1 [Pyrrole-2-carboxaldehyde]
- OC43 Inhibition rate (24 h, 10 µM; inhibitor): 0.2

From publication PMC12431657, “Discovery and mechanistic insights of dibenzoylmethane as a broad spectrum inhibitor of coronavirus” (PLOS Pathogens, 2025)
